Measurements taken from paper PMC7268643.
No constants are given. Whether binding was seen depends on the method and setting. Binding seen in cells or lysates may run through a third protein.

Chains of the proteins cited; added tags and fusions are not shown.
UniProt P42859: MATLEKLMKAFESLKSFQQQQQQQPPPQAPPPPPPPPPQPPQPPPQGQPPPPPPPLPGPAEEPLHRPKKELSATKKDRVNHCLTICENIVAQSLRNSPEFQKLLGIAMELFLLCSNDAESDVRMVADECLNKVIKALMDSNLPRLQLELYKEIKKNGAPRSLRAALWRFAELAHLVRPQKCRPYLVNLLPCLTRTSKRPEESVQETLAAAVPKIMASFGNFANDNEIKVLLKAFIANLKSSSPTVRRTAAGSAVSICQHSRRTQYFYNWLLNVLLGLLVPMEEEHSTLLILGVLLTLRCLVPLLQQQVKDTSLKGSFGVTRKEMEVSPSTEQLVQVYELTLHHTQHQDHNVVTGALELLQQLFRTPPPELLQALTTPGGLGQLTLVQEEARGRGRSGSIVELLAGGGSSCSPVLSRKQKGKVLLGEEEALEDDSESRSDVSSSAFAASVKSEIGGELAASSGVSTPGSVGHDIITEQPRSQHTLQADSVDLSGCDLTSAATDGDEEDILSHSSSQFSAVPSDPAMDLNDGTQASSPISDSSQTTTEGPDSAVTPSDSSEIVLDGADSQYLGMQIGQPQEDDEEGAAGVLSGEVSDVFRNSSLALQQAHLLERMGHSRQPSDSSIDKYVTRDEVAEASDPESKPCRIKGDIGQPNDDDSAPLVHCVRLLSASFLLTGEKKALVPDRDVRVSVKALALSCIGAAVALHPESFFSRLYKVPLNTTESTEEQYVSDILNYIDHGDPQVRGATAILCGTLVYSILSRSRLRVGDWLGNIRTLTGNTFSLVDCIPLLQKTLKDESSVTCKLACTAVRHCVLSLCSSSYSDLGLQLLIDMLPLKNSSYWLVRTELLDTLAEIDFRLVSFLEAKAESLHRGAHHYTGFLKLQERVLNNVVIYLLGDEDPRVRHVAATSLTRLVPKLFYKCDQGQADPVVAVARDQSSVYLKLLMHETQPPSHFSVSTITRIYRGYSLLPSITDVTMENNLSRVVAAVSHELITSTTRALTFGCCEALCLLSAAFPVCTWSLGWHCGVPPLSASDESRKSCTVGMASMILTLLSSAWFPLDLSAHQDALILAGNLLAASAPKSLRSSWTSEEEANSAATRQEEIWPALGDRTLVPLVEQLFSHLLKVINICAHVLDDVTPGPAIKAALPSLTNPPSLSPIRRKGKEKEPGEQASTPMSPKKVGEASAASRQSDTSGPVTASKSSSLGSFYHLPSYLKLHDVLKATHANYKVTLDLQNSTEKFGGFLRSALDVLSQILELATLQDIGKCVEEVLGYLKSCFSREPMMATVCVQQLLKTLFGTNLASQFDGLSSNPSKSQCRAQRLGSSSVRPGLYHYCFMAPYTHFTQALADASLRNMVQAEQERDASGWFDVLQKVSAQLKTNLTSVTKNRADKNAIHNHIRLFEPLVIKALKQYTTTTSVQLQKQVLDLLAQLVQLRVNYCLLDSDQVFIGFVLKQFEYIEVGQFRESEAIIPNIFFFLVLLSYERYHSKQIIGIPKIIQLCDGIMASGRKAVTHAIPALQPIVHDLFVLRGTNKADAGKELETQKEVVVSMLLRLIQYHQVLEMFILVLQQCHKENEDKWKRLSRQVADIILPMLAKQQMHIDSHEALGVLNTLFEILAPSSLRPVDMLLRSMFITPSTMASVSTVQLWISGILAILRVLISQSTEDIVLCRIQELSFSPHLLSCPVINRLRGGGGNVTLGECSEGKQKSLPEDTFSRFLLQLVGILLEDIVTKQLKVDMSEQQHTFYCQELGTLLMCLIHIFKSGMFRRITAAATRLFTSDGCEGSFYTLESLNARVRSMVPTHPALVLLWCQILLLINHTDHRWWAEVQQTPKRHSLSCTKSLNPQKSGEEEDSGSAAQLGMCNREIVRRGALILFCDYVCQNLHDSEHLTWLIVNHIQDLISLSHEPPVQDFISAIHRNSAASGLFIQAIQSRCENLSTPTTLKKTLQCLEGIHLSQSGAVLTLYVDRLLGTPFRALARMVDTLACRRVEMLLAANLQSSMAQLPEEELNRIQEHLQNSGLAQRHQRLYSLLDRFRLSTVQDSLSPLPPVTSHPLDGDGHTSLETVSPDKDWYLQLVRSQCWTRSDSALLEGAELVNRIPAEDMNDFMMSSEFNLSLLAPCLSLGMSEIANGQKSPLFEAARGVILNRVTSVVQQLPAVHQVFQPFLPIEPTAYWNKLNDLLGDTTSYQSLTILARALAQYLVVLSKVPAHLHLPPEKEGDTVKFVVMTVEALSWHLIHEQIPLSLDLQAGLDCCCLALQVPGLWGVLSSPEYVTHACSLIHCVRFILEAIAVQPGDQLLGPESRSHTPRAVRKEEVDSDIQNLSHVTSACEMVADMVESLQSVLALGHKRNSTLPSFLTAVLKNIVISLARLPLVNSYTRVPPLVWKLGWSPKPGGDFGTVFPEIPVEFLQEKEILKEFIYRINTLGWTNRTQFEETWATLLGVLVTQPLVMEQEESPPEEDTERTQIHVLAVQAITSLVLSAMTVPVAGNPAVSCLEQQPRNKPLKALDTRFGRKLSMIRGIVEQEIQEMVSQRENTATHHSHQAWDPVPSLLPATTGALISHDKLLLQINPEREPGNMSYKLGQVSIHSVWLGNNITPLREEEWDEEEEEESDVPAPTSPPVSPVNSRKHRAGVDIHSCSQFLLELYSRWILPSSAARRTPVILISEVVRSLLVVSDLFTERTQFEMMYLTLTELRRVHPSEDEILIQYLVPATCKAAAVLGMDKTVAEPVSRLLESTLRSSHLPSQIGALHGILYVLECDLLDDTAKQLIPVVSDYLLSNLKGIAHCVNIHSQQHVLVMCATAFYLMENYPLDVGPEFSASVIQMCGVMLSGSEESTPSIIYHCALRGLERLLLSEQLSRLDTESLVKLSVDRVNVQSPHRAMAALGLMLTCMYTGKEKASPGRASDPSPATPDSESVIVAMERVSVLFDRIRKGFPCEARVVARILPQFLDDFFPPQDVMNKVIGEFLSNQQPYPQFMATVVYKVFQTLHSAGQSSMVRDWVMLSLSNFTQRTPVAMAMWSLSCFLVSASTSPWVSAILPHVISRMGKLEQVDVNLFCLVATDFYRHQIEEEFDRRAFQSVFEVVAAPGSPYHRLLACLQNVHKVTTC

Target: wild type huntingtin (endogenous, mouse brain) (mouse (endogenous in mouse brain)) (UniProt P42859)
Assay: co-IP; telencephalic homogenates (1000 x g supernatant) of 40-week-old R6/1 and WT mice, 1 ug/ul in PBS pH 7.4 with 1 mM EDTA, 1% Nonidet P40; 3 ug mouse monoclonal anti-huntingtin (MAB5492), 4 °C overnight, protein-G agarose; blot for Bassoon

- binding: no binding
Substance: Bassoon (endogenous, mouse brain) (from UniProt O88737 1-3942)
